From the supplement of paper PMC11264405

Key:
Assay in all cases: minimum inhibitory concentration
[1] = compound: CN(C)c1cc(NC(=O)CNC(C)(C)C)c(O)c2c1C[C@H]1C[C@H]3[C@H](N(C)C)C(O)=C(C(N)=O)C(=O)[C@@]3(O)C(O)=C1C2=O [tigecycline]
[2] = compound: C[C@@H](O)[C@H]1C(=O)N2C(C(=O)O)=C(SCCNC=N)C[C@H]12 [imipenem]
[3] = compound: CCC[C@@H]1C[C@@H](C(=O)N[C@@H]([C@H]2O[C@H](SC)[C@H](O)[C@@H](O)[C@H]2O)[C@H](C)Cl)N(C)C1 [clindamycin]
[4] = compound: Cc1ncc([N+](=O)[O-])n1CCO [metronidazole]
[5] = compound: CCc1c(Cl)c(O)c(Cl)c(O)c1C(=O)O[C@H]1[C@H](O)[C@H](OC)[C@H](OC/C2=C\C=C\C[C@H](O)/C(C)=C/[C@H](CC)[C@@H](O[C@@H]3OC(C)(C)[C@@H](OC(=O)C(C)C)[C@H](O)[C@@H]3O)/C(C)=C/C(C)=C/C[C@@H]([C@@H](C)O)OC2=O)O[C@@H]1C [fidaxomicin]
[6] = compound: C[C@@H](O)[C@H]1C(=O)N2C(C(=O)O)=C(S[C@@H]3CN[C@H](C(=O)N(C)C)C3)[C@H](C)[C@H]12 [meropenem]
[7] = compound: CO[C@H]1/C=C/O[C@@]2(C)Oc3c(C)c(O)c4c(O)c(c(/C=N/N5CCN(C)CC5)c(O)c4c3C2=O)NC(=O)/C(C)=C\C=C\[C@H](C)[C@H](O)[C@@H](C)[C@@H](O)[C@@H](C)[C@H](OC(C)=O)[C@@H]1C [rifampicin]
[8] = compound: CN[C@H](CC(C)C)C(=O)N[C@H]1C(=O)N[C@@H](CC(N)=O)C(=O)N[C@H]2C(=O)N[C@H]3C(=O)N[C@H](C(=O)N[C@H](C(=O)O)c4cc(O)cc(O)c4-c4cc3ccc4O)[C@H](O)c3ccc(c(Cl)c3)Oc3cc2cc(c3O[C@@H]2O[C@H](CO)[C@@H](O)[C@H](O)[C@H]2O[C@H]2C[C@](C)(N)[C@H](O)[C@H](C)O2)Oc2ccc(cc2Cl)[C@H]1O [vancomycin]
[9] = compound: CC(=O)NC[C@H]1CN(c2ccc(N3CCOCC3)c(F)c2)C(=O)O1 [linezolid]

In the case of “Clostridioides difficile PCR ribotype 070 isolate #172 (European region: East, country: Romania, isolate source: Human, ribotype: 070)”, the minimum inhibitory concentration [1] is reported as less than 0.03 mg/L, the minimum inhibitory concentration [2] is reported as 2 mg/L and the minimum inhibitory concentration [3] is reported as 4 mg/L. For the same test system, the minimum inhibitory concentration [4] was less than 0.125 mg/L, the minimum inhibitory concentration [5] was 0.015 mg/L and the minimum inhibitory concentration [6] was 4 mg/L. For the same test system, the minimum inhibitory concentration [7] was less than 1 ng/mL, the minimum inhibitory concentration [8] was 0.5 mg/L and the minimum inhibitory concentration [9] was less than 0.125 mg/L.
For “Clostridioides difficile PCR ribotype 070 isolate #173 (European region: South, country: Italy, isolate source: Human, ribotype: 070)”, the minimum inhibitory concentration [1] was less than 0.03 mg/L, the minimum inhibitory concentration [2] was 2 mg/L and the minimum inhibitory concentration [3] was 4 mg/L. It also gave a minimum inhibitory concentration [4] of less than 0.125 mg/L, a minimum inhibitory concentration [5] of 0.06 mg/L and a minimum inhibitory concentration [6] of 2 mg/L. For the same test system, the minimum inhibitory concentration [7] was less than 1 ng/mL, the minimum inhibitory concentration [8] was less than 0.125 mg/L and the minimum inhibitory concentration [9] was 2 mg/L.
With “Clostridioides difficile PCR ribotype 073 isolate #174 (European region: South, country: Spain, isolate source: Human, ribotype: 073)” the minimum inhibitory concentration [1] was less than 0.03 mg/L, the minimum inhibitory concentration [2] was 4 mg/L and the minimum inhibitory concentration [3] was 8 mg/L. For the same test system, the minimum inhibitory concentration [4] was less than 0.125 mg/L, the minimum inhibitory concentration [5] was 0.03 mg/L and the minimum inhibitory concentration [6] was 4 mg/L. For the same test system, the minimum inhibitory concentration [7] was 2 ng/mL, the minimum inhibitory concentration [8] was 0.5 mg/L and the minimum inhibitory concentration [9] was 2 mg/L.
Test System “Clostridioides difficile PCR ribotype 073 isolate #175 (European region: South, country: Spain, isolate source: Human, ribotype: 073)” has a minimum inhibitory concentration [1] of less than 0.03 mg/L, a minimum inhibitory concentration [2] of 4 mg/L and a minimum inhibitory concentration [3] of 1 mg/L. The minimum inhibitory concentration [4] was less than 0.125 mg/L, the minimum inhibitory concentration [5] was 0.015 mg/L and the minimum inhibitory concentration [6] was 2 mg/L. It also gave a minimum inhibitory concentration [7] of 2 ng/mL, a minimum inhibitory concentration [8] of 0.5 mg/L and a minimum inhibitory concentration [9] of 2 mg/L.
“Clostridioides difficile PCR ribotype 073 isolate #332 (European region: West, country: Netherlands, isolate source: Animal, ribotype: 073)” showed a minimum inhibitory concentration [1] of 0.25 mg/L, a minimum inhibitory concentration [2] of 2 mg/L and a minimum inhibitory concentration [3] of 16 mg/L. For the same test system, the minimum inhibitory concentration [4] was 0.25 mg/L, the minimum inhibitory concentration [5] was 0.06 mg/L and the minimum inhibitory concentration [6] was 4 mg/L. For the same test system, the minimum inhibitory concentration [7] was less than 1 ng/mL, the minimum inhibitory concentration [8] was 0.5 mg/L and the minimum inhibitory concentration [9] was 2 mg/L.
Test System “Clostridioides difficile PCR ribotype 076 isolate #176 (European region: North, country: UK, isolate source: Human, ribotype: 076)” has a minimum inhibitory concentration [1] of 0.06 mg/L, a minimum inhibitory concentration [2] of 4 mg/L and a minimum inhibitory concentration [3] of 8 mg/L. The minimum inhibitory concentration [4] was 0.25 mg/L, the minimum inhibitory concentration [5] was 0.06 mg/L and the minimum inhibitory concentration [6] was 4 mg/L. It also gave a minimum inhibitory concentration [7] of less than 1 ng/mL, a minimum inhibitory concentration [8] of 0.5 mg/L and a minimum inhibitory concentration [9] of 2 mg/L.
With “Clostridioides difficile PCR ribotype 078 isolate #179 (European region: North, country: Sweden, isolate source: Human, ribotype: 078)” the minimum inhibitory concentration [1] was less than 0.03 mg/L, the minimum inhibitory concentration [2] was 2 mg/L and the minimum inhibitory concentration [3] was 1 mg/L. It also gave a minimum inhibitory concentration [4] of less than 0.125 mg/L, a minimum inhibitory concentration [5] of 0.015 mg/L and a minimum inhibitory concentration [6] of 2 mg/L. It also gave a minimum inhibitory concentration [7] of less than 1 ng/mL, a minimum inhibitory concentration [8] of 1 mg/L and a minimum inhibitory concentration [9] of 2 mg/L.
Work on “Clostridioides difficile PCR ribotype 078 isolate #180 (European region: West, country: France, isolate source: Human, ribotype: 078)” yielded a minimum inhibitory concentration [1] of less than 0.03 mg/L, a minimum inhibitory concentration [2] of 2 mg/L and a minimum inhibitory concentration [3] of 8 mg/L. For the same test system, the minimum inhibitory concentration [4] was 0.25 mg/L, the minimum inhibitory concentration [5] was 0.06 mg/L and the minimum inhibitory concentration [6] was 2 mg/L. It also gave a minimum inhibitory concentration [7] of less than 1 ng/mL, a minimum inhibitory concentration [8] of 0.5 mg/L and a minimum inhibitory concentration [9] of 2 mg/L.
“Clostridioides difficile PCR ribotype 078 isolate #182 (European region: South, country: Spain, isolate source: Human, ribotype: 078)” gave a minimum inhibitory concentration [1] of 0.06 mg/L, a minimum inhibitory concentration [2] of 4 mg/L and a minimum inhibitory concentration [3] of 2 mg/L. For the same test system, the minimum inhibitory concentration [4] was less than 0.125 mg/L, the minimum inhibitory concentration [5] was 0.06 mg/L and the minimum inhibitory concentration [6] was 2 mg/L. The minimum inhibitory concentration [7] was less than 1 ng/mL, the minimum inhibitory concentration [8] was 1 mg/L and the minimum inhibitory concentration [9] was 2 mg/L.
Test System “Clostridioides difficile PCR ribotype 078 isolate #183 (European region: South, country: Spain, isolate source: Human, ribotype: 078)” has a minimum inhibitory concentration [1] of 0.06 mg/L, a minimum inhibitory concentration [2] of 2 mg/L and a minimum inhibitory concentration [3] of 2 mg/L. The minimum inhibitory concentration [4] was less than 0.125 mg/L, the minimum inhibitory concentration [5] was 0.06 mg/L and the minimum inhibitory concentration [6] was 2 mg/L. For the same test system, the minimum inhibitory concentration [7] was less than 1 ng/mL, the minimum inhibitory concentration [8] was 0.5 mg/L and the minimum inhibitory concentration [9] was 2 mg/L.
“Clostridioides difficile PCR ribotype 078 isolate #185 (European region: South, country: Spain, isolate source: Human, ribotype: 078)” showed a minimum inhibitory concentration [1] of less than 0.03 mg/L, a minimum inhibitory concentration [2] of 2 mg/L and a minimum inhibitory concentration [3] of 16 mg/L. It also gave a minimum inhibitory concentration [4] of 0.25 mg/L, a minimum inhibitory concentration [5] of 0.06 mg/L and a minimum inhibitory concentration [6] of 2 mg/L. For the same test system, the minimum inhibitory concentration [7] was less than 1 ng/mL, the minimum inhibitory concentration [8] was 1 mg/L and the minimum inhibitory concentration [9] was 2 mg/L.
